Measurements reported in PMC4010494.
These are yes or no findings as the source states them, for the method shown.

Protein sequences, listed by entry. Tags and fused reporters are not part of them. Residues count along the entry.
UniProt Q00960, residues 1120-1482: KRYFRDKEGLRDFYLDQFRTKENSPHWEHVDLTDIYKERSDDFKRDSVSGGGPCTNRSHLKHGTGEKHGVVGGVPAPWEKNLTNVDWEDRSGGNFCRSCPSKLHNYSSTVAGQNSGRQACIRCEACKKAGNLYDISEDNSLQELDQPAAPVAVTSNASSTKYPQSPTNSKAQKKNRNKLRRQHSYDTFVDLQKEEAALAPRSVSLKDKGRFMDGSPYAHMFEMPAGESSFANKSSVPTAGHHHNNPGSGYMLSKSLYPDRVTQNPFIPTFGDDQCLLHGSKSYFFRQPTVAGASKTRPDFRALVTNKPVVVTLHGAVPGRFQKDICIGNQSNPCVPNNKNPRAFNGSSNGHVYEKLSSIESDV

Experiments:
[1] = target: GST-GluN2B-C (GST fusion with the GluN2B cytoplasmic C-terminus, amino acids 1120-1482) (UniProt Q00960); assay: microtiter plate binding assay (bound protein eluted, silver stain); 100 mg/ml lysozyme (6.8 mM), BSA (1.5 mM) or IgG on immuno-immobilized GST-GluN2B-C, GST or empty anti-GST wells, conditions as in Figure 1A; eluted, SDS-PAGE, silver stain; both purified
[2] = target: GST-GluN2B-C (GST fusion with the GluN2B cytoplasmic C-terminus, amino acids 1120-1482) (UniProt Q00960); assay: pull-down; 100 mg/ml lysozyme (6.8 mM) or BSA (1.5 mM) on GST-GluN2B-C, GST or empty glutathione beads, conditions as in Figure 1A; eluted, SDS-PAGE, silver stain; both purified

“chicken lysozyme (from UniProt P00698 19-147) (enzyme)” was tested, and the binding [1] was “no binding (tested: 100 mg/ml (6.8 mM))” and the binding [2] was “no binding (tested: 100 mg/ml (6.8 mM))”.
